Laboratory results: PMC11403291
Results are given in words; binding and its absence hold for the method and conditions named. In cells and extracts the contact can be indirect. These calls come from enrichment with a bait or labelling near it, and not all partners need be listed.

Protein sequences, listed by entry. Tags and fused reporters are not part of them.
UniProt P09874: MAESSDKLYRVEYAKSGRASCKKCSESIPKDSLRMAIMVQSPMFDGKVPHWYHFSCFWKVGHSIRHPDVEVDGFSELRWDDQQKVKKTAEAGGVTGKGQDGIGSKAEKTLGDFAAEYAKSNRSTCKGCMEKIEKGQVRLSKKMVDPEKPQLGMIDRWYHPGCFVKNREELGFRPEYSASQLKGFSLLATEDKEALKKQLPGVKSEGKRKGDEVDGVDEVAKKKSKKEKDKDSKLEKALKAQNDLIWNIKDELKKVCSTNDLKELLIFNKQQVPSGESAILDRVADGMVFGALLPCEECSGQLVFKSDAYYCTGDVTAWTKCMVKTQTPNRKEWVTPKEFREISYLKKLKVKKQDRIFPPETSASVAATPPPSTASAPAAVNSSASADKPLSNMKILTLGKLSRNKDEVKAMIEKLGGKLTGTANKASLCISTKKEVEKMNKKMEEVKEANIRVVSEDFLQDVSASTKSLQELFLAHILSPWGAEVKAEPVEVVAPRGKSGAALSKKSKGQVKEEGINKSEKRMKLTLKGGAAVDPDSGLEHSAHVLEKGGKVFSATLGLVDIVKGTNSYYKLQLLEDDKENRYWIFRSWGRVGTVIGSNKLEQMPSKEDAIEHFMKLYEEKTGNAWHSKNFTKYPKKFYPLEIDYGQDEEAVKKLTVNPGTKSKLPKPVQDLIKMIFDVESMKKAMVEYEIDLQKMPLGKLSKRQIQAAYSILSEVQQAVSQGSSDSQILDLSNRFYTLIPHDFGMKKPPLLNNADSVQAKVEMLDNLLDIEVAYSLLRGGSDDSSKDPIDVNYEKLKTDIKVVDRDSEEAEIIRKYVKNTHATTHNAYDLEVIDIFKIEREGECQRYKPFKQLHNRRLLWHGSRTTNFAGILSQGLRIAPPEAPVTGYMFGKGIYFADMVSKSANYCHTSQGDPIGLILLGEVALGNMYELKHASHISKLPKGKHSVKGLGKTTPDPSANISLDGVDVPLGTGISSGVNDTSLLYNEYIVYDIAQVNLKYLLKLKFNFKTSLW
UniProt P11387: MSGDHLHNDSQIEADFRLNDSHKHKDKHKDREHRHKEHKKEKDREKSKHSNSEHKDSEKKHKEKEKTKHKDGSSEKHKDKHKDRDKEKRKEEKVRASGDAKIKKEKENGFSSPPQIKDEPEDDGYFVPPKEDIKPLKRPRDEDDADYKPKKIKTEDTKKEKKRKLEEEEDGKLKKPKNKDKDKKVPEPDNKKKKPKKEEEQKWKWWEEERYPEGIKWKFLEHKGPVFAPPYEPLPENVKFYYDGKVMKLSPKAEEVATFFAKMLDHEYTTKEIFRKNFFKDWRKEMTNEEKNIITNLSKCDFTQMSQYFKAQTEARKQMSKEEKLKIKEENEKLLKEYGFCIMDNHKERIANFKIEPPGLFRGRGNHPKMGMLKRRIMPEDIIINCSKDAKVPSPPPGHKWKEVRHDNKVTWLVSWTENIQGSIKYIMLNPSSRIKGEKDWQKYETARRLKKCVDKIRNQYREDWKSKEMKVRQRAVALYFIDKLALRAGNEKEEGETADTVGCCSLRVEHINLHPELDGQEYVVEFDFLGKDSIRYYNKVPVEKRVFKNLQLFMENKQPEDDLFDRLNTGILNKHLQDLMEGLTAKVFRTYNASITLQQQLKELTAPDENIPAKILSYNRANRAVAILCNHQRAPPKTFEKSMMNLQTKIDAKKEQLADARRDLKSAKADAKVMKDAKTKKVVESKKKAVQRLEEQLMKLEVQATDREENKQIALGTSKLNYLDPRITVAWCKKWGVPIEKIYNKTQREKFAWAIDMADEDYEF

Target: PARP1 (human (endogenous in HEK293, K-562, placenta, HepG2 Princen)) (UniProt P09874)
Assay: affinity purification with mass spectrometry

- binding: binds
Substance: DNA topoisomerase (TOP1) (from UniProt P11387 1-765) (enzyme)
